This is one part of the list. This data set is noisy: repeats of one test often differ as much as different tests do.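 Assays used MDA-MB-231 triple-negative breast cancer cells and their brain-metastatic line MDA-MB-231BRM, stably carrying empty vector, full-length GLI1 or truncated tGLI1. After 48 h, viability was read with CellTiter-Blue and normalized to 1% DMSO vehicle. tGLI1 selectivity meant viability fell 20% more in tGLI1 cells than in vector and GLI1 cells.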
Columns and labels:
Test in all cases: cell viability relative to vehicle (DMSO) control (fraction); higher = more viable cells (less growth inhibition)
Conditions in all cases: treatment time 48 h
MDA-MB-231 GLI1 = test system: MDA-MB-231 GLI1
MDA-MB-231 Vector = test system: MDA-MB-231 Vector
MDA-MB-231 tGLI1 = test system: MDA-MB-231 tGLI1
MDA-MB-231BRM GLI1 = test system: MDA-MB-231BRM GLI1
MDA-MB-231BRM Vector = test system: MDA-MB-231BRM Vector
MDA-MB-231BRM tGLI1 = test system: MDA-MB-231BRM tGLI1

SMILES | cell viability (MDA-MB-231 GLI1; 0.05 µM) | cell viability (MDA-MB-231 GLI1; 0.5 µM) | cell viability (MDA-MB-231 GLI1; 5 µM) | cell viability (MDA-MB-231 Vector; 0.05 µM) | cell viability (MDA-MB-231 Vector; 0.5 µM) | cell viability (MDA-MB-231 Vector; 5 µM) | cell viability (MDA-MB-231 tGLI1; 0.05 µM) | cell viability (MDA-MB-231 tGLI1; 0.5 µM) | cell viability (MDA-MB-231 tGLI1; 5 µM) | cell viability (MDA-MB-231BRM GLI1; 0.05 µM) | cell viability (MDA-MB-231BRM GLI1; 0.5 µM) | cell viability (MDA-MB-231BRM GLI1; 5 µM) | cell viability (MDA-MB-231BRM Vector; 0.05 µM) | cell viability (MDA-MB-231BRM Vector; 0.5 µM) | cell viability (MDA-MB-231BRM Vector; 5 µM) | cell viability (MDA-MB-231BRM tGLI1; 0.05 µM) | cell viability (MDA-MB-231BRM tGLI1; 0.5 µM) | cell viability (MDA-MB-231BRM tGLI1; 5 µM)
O=C1CCC(N2C(=O)c3ccccc3C2=O)C(=O)N1 (stereo unspecified) [Thalidomide] | 1.35 | 1.1 | 1.11 | 1.17 | 1.28 | 1.23 | 1.2 | 1.05 | 1.18 | 1.06 | 1.04 | 1.01 | 0.997 | 1.01 | 1.01 | 1.06 | 1.02 | 1.07
CCNC(=O)Nc1ccc(-c2nc3c(c(N4CCOC[C@@H]4C)n2)CCN(C2COC2)C3)cc1 | 1.91 | 2.22 | 0.761 | 1.11 | 0.836 | 0.421 | 1.12 | 0.775 | 0.479 | 0.79 | 0.706 | 0.588 | 0.813 | 0.711 | 0.573 | 1.15 | 0.901 | 1.03
Nc1nc(Cl)nc2c1ncn2[C@@H]1O[C@H](CO)[C@@H](O)[C@@H]1F [Clofarabine] | 1.07 | 0.575 | 0.43 | 0.946 | 0.357 | 0.264 | 0.962 | 0.532 | 0.445 | 1.01 | 0.794 | 0.669 | 0.914 | 0.968 | 0.815 | 1.05 | 0.908 | 0.803
COc1ccc2cccc(CCNC(C)=O)c2c1 [Agomelatine] | 1.09 | 1.09 | 1.13 | 0.938 | 1.25 | 1.44 | 1.05 | 1.05 | 1.07 | 0.996 | 1 | 0.984 | 1.06 | 0.973 | 0.989 | 0.985 | 1.02 | 0.915
COc1ccc(S(=O)(=O)N(CCO)c2ccccc2CN(C)C/C=C/c2ccc(Cl)cc2)cc1 [KN-93 Phosphate] | 1.22 | 1.41 | 1.02 | 0.444 | 0.561 | 0.248 | 0.414 | 0.564 | 0.477 | 0.528 | 0.485 | 0.54 | 0.661 | 0.539 | 0.501 | 0.768 | 0.716 | 0.703
Cc1ccc(NC(=O)c2cccc(N(C)C)c2)cc1NC(=O)c1ccc(O)cc1 | 1.33 | 1.21 | 1.06 | 1.34 | 1.33 | 1.49 | 1.46 | 1.18 | 1.01 | 1.02 | 0.97 | 0.918 | 1.06 | 1.09 | 0.877 | 1.06 | 1.05 | 0.935
CCCS(=O)(=O)Nc1ccc(F)c(C(=O)c2c[nH]c3ncc(-c4ccc(Cl)cc4)cc23)c1F [Vemurafenib (PLX4032, RG7204)] | 1.41 | 1.46 | 1.54 | 1.99 | 1.27 | 1.13 | 1.36 | 1.19 | 1.24 | 1.2 | 1.13 | 0.855 | 1.08 | 1.04 | 0.798 | 1.01 | 0.637 | 0.874
Nc1nc(N)c(N=O)c(OCC2CCCCC2)n1 | 1.39 | 1.58 | 0.72 | 1.5 | 1.39 | 1.04 | 1.43 | 1.39 | 1.13 | 1.05 | 1.01 | 0.957 | 1.15 | 1.04 | 1.02 | 1.01 | 1.01 | 0.959
Cc1cnc(Nc2ccc(N3CCN(C)CC3)cc2)nc1Nc1cccc(S(=O)(=O)NC(C)(C)C)c1 | 1.3 | 1.68 | 0.173 | 1.35 | 0.998 | 0.331 | 1.41 | 0.821 | 0.181 | 0.994 | 0.967 | 0.447 | 1.08 | 0.945 | 0.436 | 1.06 | 1.04 | 0.385
NC(=O)c1ccc(N(C(N)=O)c2c(F)cccc2F)nc1-c1ccc(F)cc1F | 1.31 | 1.57 | 1.17 | 1.41 | 1.43 | 1.48 | 1.3 | 1.45 | 1.51 | 1.03 | 0.952 | 0.965 | 0.988 | 1.06 | 1.05 | 1.02 | 1.03 | 1
Nc1cccc2c1CN(C1CCC(=O)NC1=O)C2=O (stereo unspecified) [Lenalidomide] | 1.18 | 1.18 | 1.21 | 0.961 | 1.66 | 1.22 | 1.06 | 1.07 | 0.996 | 0.987 | 1.02 | 0.999 | 1.02 | 1.02 | 1.03 | 1.08 | 1.05 | 1.04
CC(C)(C#N)c1ccc(N2C(=O)OCc3cnc4ccc(-c5cnc6ccccc6c5)cc4c32)cc1 | 1.12 | 0.887 | 0.278 | 0.669 | 0.364 | 0.0378 | 0.55 | 0.388 | 0.075 | 0.592 | 0.463 | 0.483 | 0.533 | 0.448 | 0.445 | 0.73 | 0.613 | 0.734
COc1cc2nccc(Oc3ccc(NC(=O)Nc4cc(C)on4)c(Cl)c3)c2cc1OC [Tivozanib (AV-951)] | 1.2 | 1.15 | 0.417 | 0.97 | 1.14 | 0.373 | 1.05 | 1.08 | 0.425 | 1.03 | 1.08 | 0.713 | 1.13 | 0.914 | 0.46 | 0.934 | 1.07 | 0.68
COc1cc2ncnc(Nc3ccc(Cl)cc3F)c2cc1OC | 1.07 | 1.45 | 1.2 | 0.896 | 1.35 | 1.3 | 0.866 | 1.34 | 1.14 | 0.933 | 0.93 | 0.938 | 1.01 | 1.03 | 0.964 | 0.999 | 0.944 | 0.929
CC1=C(C(=O)Nc2cc3cn[nH]c3cc2F)C(c2ccc(C(F)(F)F)cc2)CC(=O)N1 (stereo unspecified) | 1.27 | 1.18 | 0.454 | 1.61 | 1.11 | 0.913 | 1.15 | 0.935 | 1.05 | 1.18 | 0.659 | 0.975 | 1.27 | 1.12 | 0.968 | 1.03 | 1.22 | 0.973
C[C@H](Nc1ncnc2[nH]cnc12)c1cc2ccc(F)cc2nc1-c1ccccn1 | 1.15 | 1.86 | 1.18 | 0.755 | 0.615 | 0.594 | 0.682 | 0.714 | 0.773 | 0.48 | 0.475 | 0.367 | 0.586 | 0.461 | 0.399 | 0.759 | 0.589 | 0.653
CCN(CCCOc1ccc2c(Nc3cc(CC(=O)Nc4cccc(F)c4)[nH]n3)ncnc2c1)CCOP(=O)(O)O [Barasertib (AZD1152-HQPA)] | 1.08 | 1.23 | 0.734 | 1.27 | 0.879 | 0.536 | 0.948 | 1.1 | 1.14 | 0.944 | 0.973 | 0.946 | 0.957 | 0.91 | 1.06 | 1.01 | 0.923 | 0.974
Cn1nnc2c(C(N)=O)ncn2c1=O [Methazolastone] | 1.17 | 1.04 | 1.03 | 1.08 | 1 | 1.06 | 0.965 | 1.03 | 1.04 | 0.968 | 1.04 | 1.04 | 1.02 | 1.01 | 1.12 | 1.01 | 1.03 | 1.1
COc1cccc(-c2cc(=O)c3ccccc3o2)c1N | 1.36 | 1.74 | 1.64 | 1.46 | 1.21 | 1.15 | 1.3 | 1.57 | 1.22 | 1 | 1.01 | 1.02 | 1.06 | 0.954 | 0.994 | 0.989 | 1.02 | 0.969
CC(C)n1nc(-c2cc3cc(O)ccc3[nH]2)c2c(N)ncnc21 | 1.13 | 0.717 | 0.208 | 0.746 | 0.667 | 0.174 | 0.68 | 0.481 | 0.356 | 1.05 | 0.988 | 0.727 | 0.599 | 0.797 | 0.815 | 0.597 | 0.928 | 0.647
N#Cc1c(NC(=O)c2cccc3ccccc23)sc2c1CCCC2 [JNK Inhibitor IX] | 2.03 | 0.611 | 0.493 | 0.75 | 0.182 | 0.164 | 0.81 | 0.213 | 0.211 | 0.951 | 0.907 | 0.723 | 0.974 | 0.975 | 0.758 | 1.33 | 1.21 | 0.998
CCS(=O)(=O)c1cccc(-c2cc(C(=O)NC3CCN(C)CC3)c(C)c3[nH]c4ncc(C)cc4c23)c1 | 0.615 | 0.377 | 0.0425 | 0.699 | 0.51 | 0.215 | 0.719 | 0.489 | 0.115 | 1.03 | 1 | 0.986 | 1.04 | 1.06 | 0.969 | 1.04 | 1.02 | 0.883
COc1cc2/c(=N/c3ccc(Br)cc3F)nc[nH]c2cc1OCC1CCN(C)CC1 [Vandetanib (Zactima)] | 1.18 | 1.05 | 1.12 | 0.851 | 1.23 | 1.14 | 0.926 | 1.09 | 1.07 | 0.977 | 0.957 | 0.941 | 0.96 | 0.94 | 0.945 | 1.02 | 0.995 | 0.963
COc1nc(N)nc2c1ncn2[C@@H]1O[C@H](CO)[C@@H](O)[C@@H]1O [Nelarabine (Arranon)] | 1.2 | 1.01 | 1.13 | 1.01 | 1.04 | 1.19 | 1.03 | 1.18 | 1.04 | 0.998 | 0.997 | 0.936 | 1.01 | 1.04 | 1.02 | 1.09 | 1.03 | 1.05
Cn1cnc(N)c2ncnc1-2 [3-Methyladenine] | 1.28 | 1.01 | 0.987 | 1 | 1.05 | 0.83 | 1.15 | 1.01 | 1.14 | 0.974 | 1.03 | 1.09 | 0.991 | 0.959 | 1.02 | 1 | 0.996 | 1.01
CC(C)OC(=O)C(C(=O)OC(C)C)=C1SC=CS1 [Malotilate] | 1.48 | 0.984 | 1.18 | 1.67 | 1.25 | 1.18 | 1.33 | 1.04 | 1.12 | 0.987 | 1.08 | 0.973 | 0.978 | 1.03 | 1.02 | 1.05 | 1.01 | 1.05
O=C(c1cccc(Cl)c1F)N1CCN(Cc2cccc(Nc3nccs3)n2)CC1 | 0.952 | 1.2 | 0.674 | 1.09 | 1.13 | 0.777 | 0.913 | 1.21 | 0.76 | 0.991 | 0.988 | 0.971 | 1.02 | 1.12 | 0.997 | 1.04 | 1.02 | 0.953

Copied from the listing, 2 compounds:
SMILES | cell viability (MDA-MB-231 GLI1; 0.05 µM) | cell viability (MDA-MB-231 GLI1; 0.5 µM) | cell viability (MDA-MB-231 GLI1; 5 µM) | cell viability (MDA-MB-231 Vector; 0.05 µM) | cell viability (MDA-MB-231 Vector; 0.5 µM) | cell viability (MDA-MB-231 Vector; 5 µM) | cell viability (MDA-MB-231 tGLI1; 0.05 µM) | cell viability (MDA-MB-231 tGLI1; 0.5 µM) | cell viability (MDA-MB-231 tGLI1; 5 µM) | cell viability (MDA-MB-231BRM GLI1; 0.05 µM) | cell viability (MDA-MB-231BRM GLI1; 0.5 µM) | cell viability (MDA-MB-231BRM GLI1; 5 µM) | cell viability (MDA-MB-231BRM Vector; 0.05 µM) | cell viability (MDA-MB-231BRM Vector; 0.5 µM) | cell viability (MDA-MB-231BRM Vector; 5 µM) | cell viability (MDA-MB-231BRM tGLI1; 0.05 µM) | cell viability (MDA-MB-231BRM tGLI1; 0.5 µM) | cell viability (MDA-MB-231BRM tGLI1; 5 µM)
COc1ccc2cccc(CCNC(C)=O)c2c1 [Agomelatine] | 1.09 | 1.09 | 1.13 | 0.938 | 1.25 | 1.44 | 1.05 | 1.05 | 1.07 | 0.996 | 1 | 0.984 | 1.06 | 0.973 | 0.989 | 0.985 | 1.02 | 0.915
COc1ccc(S(=O)(=O)N(CCO)c2ccccc2CN(C)C/C=C/c2ccc(Cl)cc2)cc1 [KN-93 Phosphate] | 1.22 | 1.41 | 1.02 | 0.444 | 0.561 | 0.248 | 0.414 | 0.564 | 0.477 | 0.528 | 0.485 | 0.54 | 0.661 | 0.539 | 0.501 | 0.768 | 0.716 | 0.703

— the supplement of paper PMC9454738
